# Assay results published in PMC3650004.
# By UniProt entry, the sequences of proteins in these tests, tags left out.
# UniProt P12956: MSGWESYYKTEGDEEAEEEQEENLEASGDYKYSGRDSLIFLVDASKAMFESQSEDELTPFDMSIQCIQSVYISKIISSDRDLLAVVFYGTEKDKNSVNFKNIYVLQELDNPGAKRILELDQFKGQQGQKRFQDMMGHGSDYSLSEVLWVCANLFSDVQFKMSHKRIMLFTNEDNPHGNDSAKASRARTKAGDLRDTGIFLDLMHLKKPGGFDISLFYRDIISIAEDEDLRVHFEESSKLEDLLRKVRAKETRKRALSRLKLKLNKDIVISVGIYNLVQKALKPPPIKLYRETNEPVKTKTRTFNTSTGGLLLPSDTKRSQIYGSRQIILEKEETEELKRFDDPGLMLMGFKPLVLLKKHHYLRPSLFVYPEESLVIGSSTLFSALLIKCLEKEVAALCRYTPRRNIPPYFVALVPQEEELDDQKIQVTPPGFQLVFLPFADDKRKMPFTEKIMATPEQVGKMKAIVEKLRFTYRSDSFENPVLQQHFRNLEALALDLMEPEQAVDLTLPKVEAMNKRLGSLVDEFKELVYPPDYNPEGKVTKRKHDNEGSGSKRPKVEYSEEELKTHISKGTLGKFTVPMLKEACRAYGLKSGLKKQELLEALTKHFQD
# UniProt P13010: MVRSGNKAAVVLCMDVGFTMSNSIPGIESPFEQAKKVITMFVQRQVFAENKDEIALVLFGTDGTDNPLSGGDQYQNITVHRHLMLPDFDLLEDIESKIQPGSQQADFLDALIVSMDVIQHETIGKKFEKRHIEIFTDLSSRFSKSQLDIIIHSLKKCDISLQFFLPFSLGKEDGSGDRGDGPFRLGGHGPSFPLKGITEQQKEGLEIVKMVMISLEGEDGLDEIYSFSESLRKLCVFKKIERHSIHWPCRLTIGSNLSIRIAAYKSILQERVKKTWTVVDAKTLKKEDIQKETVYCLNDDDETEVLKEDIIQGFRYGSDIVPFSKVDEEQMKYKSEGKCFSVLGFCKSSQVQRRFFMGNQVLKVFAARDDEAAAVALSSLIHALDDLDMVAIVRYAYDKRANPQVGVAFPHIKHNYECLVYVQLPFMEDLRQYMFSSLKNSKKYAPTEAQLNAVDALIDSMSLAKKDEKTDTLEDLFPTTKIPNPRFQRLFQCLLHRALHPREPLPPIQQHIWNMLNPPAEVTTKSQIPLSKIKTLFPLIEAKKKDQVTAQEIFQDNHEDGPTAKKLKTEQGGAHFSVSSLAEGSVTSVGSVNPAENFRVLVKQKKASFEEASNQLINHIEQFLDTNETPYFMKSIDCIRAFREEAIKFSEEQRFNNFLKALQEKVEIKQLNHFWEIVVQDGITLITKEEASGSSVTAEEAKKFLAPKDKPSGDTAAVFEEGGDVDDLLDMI
# UniProt Q9Y5B9: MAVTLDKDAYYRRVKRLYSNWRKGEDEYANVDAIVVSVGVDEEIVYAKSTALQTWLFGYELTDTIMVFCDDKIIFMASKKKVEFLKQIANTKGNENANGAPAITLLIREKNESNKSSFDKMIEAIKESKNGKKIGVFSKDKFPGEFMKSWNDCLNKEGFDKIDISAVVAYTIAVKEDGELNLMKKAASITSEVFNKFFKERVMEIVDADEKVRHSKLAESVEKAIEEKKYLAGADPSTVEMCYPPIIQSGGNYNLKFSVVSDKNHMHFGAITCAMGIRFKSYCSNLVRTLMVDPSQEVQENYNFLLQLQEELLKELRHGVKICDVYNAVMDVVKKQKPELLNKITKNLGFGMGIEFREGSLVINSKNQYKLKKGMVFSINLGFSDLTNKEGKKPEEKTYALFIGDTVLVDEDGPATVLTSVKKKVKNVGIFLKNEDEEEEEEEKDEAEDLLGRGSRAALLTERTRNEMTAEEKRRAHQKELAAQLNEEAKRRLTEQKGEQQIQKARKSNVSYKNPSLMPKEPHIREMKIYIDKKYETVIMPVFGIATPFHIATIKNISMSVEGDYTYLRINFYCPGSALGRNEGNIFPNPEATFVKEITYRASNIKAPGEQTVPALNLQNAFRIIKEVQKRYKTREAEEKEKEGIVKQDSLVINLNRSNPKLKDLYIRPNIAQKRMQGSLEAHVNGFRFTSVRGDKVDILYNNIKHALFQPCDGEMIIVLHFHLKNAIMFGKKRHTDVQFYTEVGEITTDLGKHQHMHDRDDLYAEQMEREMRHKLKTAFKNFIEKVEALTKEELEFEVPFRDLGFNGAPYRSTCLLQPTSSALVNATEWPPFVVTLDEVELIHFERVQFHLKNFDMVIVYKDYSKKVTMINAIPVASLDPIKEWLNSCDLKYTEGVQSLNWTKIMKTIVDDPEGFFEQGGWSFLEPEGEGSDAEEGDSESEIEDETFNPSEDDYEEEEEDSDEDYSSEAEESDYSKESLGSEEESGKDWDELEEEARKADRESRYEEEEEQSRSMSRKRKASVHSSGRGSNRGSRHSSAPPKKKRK
# No constants are given. Whether binding was seen depends on the method and setting. Binding seen in cells or lysates may run through a third protein. Here binding means that the protein was enriched with, or labelled near, the bait; the list need not be complete.
# Target: T1, SMARCAL1 (endogenous) (human (endogenous in HeLa)) (UniProt Q9NZC9)
# T1 sequence: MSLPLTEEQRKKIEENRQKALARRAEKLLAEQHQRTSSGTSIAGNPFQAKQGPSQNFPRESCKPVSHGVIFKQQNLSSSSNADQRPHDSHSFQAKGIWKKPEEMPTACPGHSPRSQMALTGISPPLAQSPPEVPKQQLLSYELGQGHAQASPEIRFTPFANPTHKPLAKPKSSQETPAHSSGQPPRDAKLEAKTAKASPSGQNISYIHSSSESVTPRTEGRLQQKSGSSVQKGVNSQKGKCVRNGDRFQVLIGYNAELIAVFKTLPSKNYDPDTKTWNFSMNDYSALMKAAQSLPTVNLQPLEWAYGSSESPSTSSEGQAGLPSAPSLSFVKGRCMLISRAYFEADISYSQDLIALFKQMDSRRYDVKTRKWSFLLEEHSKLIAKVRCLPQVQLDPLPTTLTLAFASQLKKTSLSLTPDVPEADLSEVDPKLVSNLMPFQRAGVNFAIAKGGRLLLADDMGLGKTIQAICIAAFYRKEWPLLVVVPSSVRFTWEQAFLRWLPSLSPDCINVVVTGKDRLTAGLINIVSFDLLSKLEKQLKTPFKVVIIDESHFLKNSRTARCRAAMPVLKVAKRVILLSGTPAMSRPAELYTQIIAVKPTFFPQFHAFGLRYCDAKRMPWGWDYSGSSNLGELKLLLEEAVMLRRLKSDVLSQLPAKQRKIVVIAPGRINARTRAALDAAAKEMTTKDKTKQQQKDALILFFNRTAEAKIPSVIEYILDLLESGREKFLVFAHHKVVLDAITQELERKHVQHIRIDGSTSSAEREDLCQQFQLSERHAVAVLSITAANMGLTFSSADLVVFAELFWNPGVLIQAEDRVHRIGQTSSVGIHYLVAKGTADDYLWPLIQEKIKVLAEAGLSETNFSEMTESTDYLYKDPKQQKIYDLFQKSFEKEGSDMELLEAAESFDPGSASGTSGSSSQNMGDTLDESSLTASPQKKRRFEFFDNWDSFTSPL
# Test: affinity purification with mass spectrometry; SMARCAL1 immunopurified from HeLa cell extracts with antibody 909 (peptide elution), and Flag(-HA)-SMARCAL1 purified from HEK293T cells; untreated or 2 mM HU for 16 h; 2D-LC tandem mass spectrometry; the text names the hits of both purifications …
row,binding,Substance
1,binds,KU70 (endogenous) (from UniProt P12956 1-609)
2,binds,KU80 (endogenous) (from UniProt P13010 1-732)
3,binds,SPT16 (endogenous) (from UniProt Q9Y5B9 1-1047)
